Assay results reported in US6630496B1, “Inhibitors of phospholipase enzymes” (Genetics Institute LLC, priority 1996, dated 2003).

Protein sequences, listed by entry. Tags and fused reporters are not part of them.
UniProt P47712, whole entry: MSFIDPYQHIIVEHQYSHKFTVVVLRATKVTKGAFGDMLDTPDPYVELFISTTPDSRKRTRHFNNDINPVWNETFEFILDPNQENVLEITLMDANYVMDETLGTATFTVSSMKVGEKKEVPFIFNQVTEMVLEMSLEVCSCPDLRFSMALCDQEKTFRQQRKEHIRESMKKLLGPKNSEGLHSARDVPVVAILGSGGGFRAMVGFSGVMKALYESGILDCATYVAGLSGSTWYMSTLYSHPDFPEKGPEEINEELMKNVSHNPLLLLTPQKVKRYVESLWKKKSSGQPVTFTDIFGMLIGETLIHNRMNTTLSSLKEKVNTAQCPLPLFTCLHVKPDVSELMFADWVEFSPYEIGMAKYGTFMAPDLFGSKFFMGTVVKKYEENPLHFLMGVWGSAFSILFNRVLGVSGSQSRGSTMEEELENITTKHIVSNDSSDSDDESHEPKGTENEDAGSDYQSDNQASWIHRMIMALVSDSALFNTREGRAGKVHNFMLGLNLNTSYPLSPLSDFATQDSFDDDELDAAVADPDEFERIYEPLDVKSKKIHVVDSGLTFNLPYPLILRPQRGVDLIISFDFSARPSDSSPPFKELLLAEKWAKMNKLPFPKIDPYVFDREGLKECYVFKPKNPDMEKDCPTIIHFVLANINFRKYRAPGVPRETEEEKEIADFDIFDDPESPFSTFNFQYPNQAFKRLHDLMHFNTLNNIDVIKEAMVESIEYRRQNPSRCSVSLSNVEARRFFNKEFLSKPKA

Target: cPLA2 (Homo sapiens, UniProt P47712)
Experiment: Activity assay of Example 136 (Table VIII; sub-assay not stated)
Conditions: read-out: CONCENTRATION (micromolar) @ PERCENT INHIBITION 50; concentration paired with 50 percent inhibition
Procedure: Activity data for the compounds of Examples 88-135 are reported in Table VIII (assay described in Example 136).
1-palmitoyl-2-V^14C] arachidonyl phosphotidylcholine (58 mCi/mmol) (final concentration 6 μM) and 1,2-dioleyolglycerol (final concentration 3 μM) were mixed and dried under a stream of nitrogen. To the lipids was added 50 mM Hepes pH 7.5 (2×final concentration of lipids) and the suspension was sonicated for 3 min. at 4° C. To the suspension was added 50 mM Hepes pH 7.5, 300 mM NaCl, 2 mM DTT, 2 mM CaCl2 and 2 mg/ml bovine serum albumin (BSA) (Sigma A7511) (1.2×final concentration of lipids). A typical assay consisted of the lipid mixture (85 μl) to which was added consecutively, the inhibitor (5 μl in DMSO) and cPLA2, 10 ng for an automated system or 1 ng for a manual assay, in 10 μl of the BSA buffer. This assay was conducted by either the manual assay or automated assay protocol described below.
1-[^14C]-palmitoyl-2-hydroxyphosphotidyl-choline (57 mCi/mmol) (final concentration 4.4 μM) was dried under a stream of nitrogen. […]
7-hydroxycoumarinyl 6-heptenoate was used as a monomeric substrate for cPLA2 as reported previously (Huang, Z. et al., 1994, Analytical Biochemistry 222, 110-115). […] Hydrolysis of the 7-hydroxycoumarinyl 6-heptenoate ester was monitored in a fluorometer by exciting at 360 nm and monitoring emission at 460 nm. […]

IC50: 12.5 µM and 15 µM
SMILES: O=C(O)/C=C/c1cc2cc(OCc3ccccc3)ccc2n1Cc1ccc2ccccc2c1

Several values for one entry are separate records, joined by “and”; a condition that tells them apart may be missing. Equal entries are not always repeated. The structures given here were assigned with low confidence; some may be wrong.
